Experimental data as given in PubChem BioAssay AID540276 (National Center for Advancing Translational Sciences (NCATS), 2011).
“And” between values parts separate entries of the source, which are not always exact repeats. Equal entries are not always repeated. Hit rate of the full screen: of about 300,000 compounds, about 5,400 (1.8%) were called active. Inconclusive results, whose numbers are uncertain, are shown with a selection of clear calls. The call rests on the fitted dose curve; tested in HEK293 cells. Where the call is inconclusive, the potency comes from a doubtful curve fit.

assay: qHTS for inhibitors of binding or entry into cells for Marburg Virus; conditions: Marburg virus pseudotyped entry inhibition, cell reporter; series mostly up to 37.8 µM
Potency means the concentration at half of the fitted maximal effect.

SMILES | Potency
CCC(c1nnnn1Cc1cccs1)N1CCN(C2CCCC2)CC1 (configuration not stated) | inactive
COc1ccc(C2C=C(c3ccccc3)Nc3nc(NC(=O)/C=C/c4ccccc4Cl)nn32)cc1 (configuration not stated) | inconclusive: 35.5 µM [inhibitor, single point]
Cc1cc(OCCN2CCCCC2)nc2ccccc12 | inconclusive: 12.6 µM [inhibitor, single point]
Cc1cccc(CCN(C(=O)c2csnn2)C(C(=O)NC2CCCC2)c2ccco2)c1 (configuration not stated) | inconclusive: 12.6 µM [inhibitor, partial curve, poor fit]
NC(=O)Cc1ccc(C(=O)c2ccc(Cl)cc2Cl)s1 | inactive
Cc1ccc(/C(N)=N/OC(=O)Cc2cccs2)cc1 | inconclusive: 1.83 µM [activator, partial curve, poor fit]
OCC1(CCCc2ccccc2)CCN(C2CCSCC2)CC1 | inconclusive: 12.6 µM [inhibitor, single point]
Cc1ncc(CO)c(/C=N/N=C/c2ccccc2O)c1O | inactive
Cc1cccc(C(=O)Nc2ccc3nc(SCCOc4ccccc4)sc3c2)c1 | inactive
O=C(Cn1nc(-c2ccc(N3CCOCC3)c([N+](=O)[O-])c2)c2ccccc2c1=O)N1CCCCC1 | inconclusive: 29.1 µM [inhibitor, single point]
O=C(Cc1c[nH]c2ccccc12)NCc1ccco1 | inactive
O=C(COC(=O)c1ccccn1)Nc1cc(Cl)ccc1Cl | inactive
CCc1ccc(CCC(=O)Nc2sc(C)c(C)c2C(=O)OC)o1 | inactive
COCC(=O)N/N=C\c1ccc(OC/C=C/c2ccccc2)c(OC)c1 | inactive
CNC(=O)COc1ccc(Nc2nnc(C)c3ccccc23)cc1 | inconclusive: 1.58 µM [inhibitor, full curve, poor fit]
Cc1nc(-c2cccc(-c3noc(C)n3)c2)no1 | inactive
COCCSc1nnc(NS(=O)(=O)c2ccc(C)cc2)s1 | inconclusive: 6.31 µM [inhibitor, single point]
Cc1nnc(C)n1/N=C/c1cc2ccccc2nc1Cl | inactive
CC(C)c1ccc(/C=C/C(=O)NC(=S)Nc2ccc(CN3CCOCC3)cc2)cc1 | inconclusive: 12.6 µM [inhibitor, partial curve, poor fit]
Cc1ccc(-n2c(=S)[nH]c3nc4c(cc3c2=O)COC(C)(C)C4)cc1 | inconclusive: 22.4 µM [activator, single point]
Clc1cccc(Cl)c1NC1=NCCN1 | inconclusive: 35.5 µM [inhibitor, single point]
CC(C)CN(C)Cc1c(C(=O)N2CCc3ccccc3C2)nc2ccc(Cl)cn12 | active: 11.2 µM
CC1(C)CC(NC(=O)c2ccccc2C(=O)NC2CC(C)(C)NC(C)(C)C2)CC(C)(C)N1 | inactive

SMILES | Potency
CC(=O)N1CCN(c2cc3c(cc2F)c(=O)c(C(=O)O)cn3C2CC2)CC1 | inactive
CCOC(=O)C1(CC2CCCCO2)CCN(Cc2cc(F)ccc2-n2cccn2)CC1 (configuration not stated) | inconclusive: 12.6 µM [inhibitor, partial curve, poor fit]
COC(=O)CCCC1=CC2=C(c3ccccc3)C(=O)C(C)(OC(=O)C3CCCC3)C(=O)C2=CN1C1CCCCC1 (configuration not stated) | inconclusive: 0.0075 µM [inhibitor, full curve, poor fit]
CCN1C(=O)/C(=C\c2nc3ccccc3c(=O)n2CC)c2ccccc21 | inconclusive: 20 µM [inhibitor, single point]
CCOc1ccc(-n2c(SCC(N)=O)nc3c(oc4ccccc43)c2=O)cc1 | inactive
O=C(N/N=C1/CCCc2ccccc21)C(c1ccccc1)c1ccccc1 | inconclusive: 9.2 µM [inhibitor, partial curve, poor fit]
Cc1ccc(C)c(S(=O)(=O)NC(C)CCc2ccccc2)c1 (configuration not stated) | inconclusive: 8.91 µM [inhibitor, partial curve, poor fit]
CN(C)CC(C(=O)Cc1ccccc1)c1ccccc1 (configuration not stated) | inconclusive: 35.5 µM [inhibitor, single point]
CC1(C)CC(=O)C2=C(C1)NC1=C(C(=O)c3ccccc31)C2c1ccc(Cl)cc1 (configuration not stated) | inconclusive: 11.2 µM [inhibitor, partial curve, poor fit]
Cc1ccc(C(NC(=O)NC(C)c2ccccc2)C(Cl)(Cl)Cl)cc1F (configuration not stated) | inconclusive: 35.5 µM [inhibitor, partial curve, poor fit]
CN(CC(=O)Nc1cccc2ccccc12)C(=O)/C=C/c1cccs1 | inconclusive: 3.98 µM [inhibitor, single point]
CC(c1ccco1)N(C(=O)CSc1ccc(Br)cc1)c1ccccn1 (configuration not stated) | inconclusive: 12.6 µM [inhibitor, partial curve, poor fit]
C=CCc1cccc(/C=N/NC(=O)CNc2ccccc2)c1O | inconclusive: 15.8 µM [inhibitor, partial curve, poor fit]
Cn1nc(-c2ccccc2)c(CO)c1Oc1ccc(F)cc1 | inconclusive: 35.5 µM [inhibitor, single point]
CCOC(=O)c1c(NC(=O)CSc2cn(CCNC(=O)c3c(F)cccc3F)c3ccccc23)sc2c1CCC2 | inconclusive: 11.2 µM [inhibitor, partial curve, poor fit]
COc1ccc(CCN2C(=O)c3[nH]nc(-c4ccccc4O)c3C2c2ccc(OC)c(OC)c2)cc1 (configuration not stated) | inconclusive: 1.58 µM [inhibitor, single point]
COc1ccc(-c2nc(C)sc2C)cc1 | inconclusive: 5.01 µM [activator, partial curve, poor fit]
CN(C)S(=O)(=O)c1ccc2c(c1)/C(=C/c1cc3c([nH]1)CCCC3)C(=O)N2 | inconclusive: 3.26 µM [activator, full curve] and inconclusive: 35.5 µM [activator, partial curve, poor fit]
CCC1CCCCN1C(=S)NCc1ccccc1 (configuration not stated) | inconclusive: 5.62 µM [activator, full curve, poor fit]
CCOc1ccc(CN(C)c2ccc(S(=O)(=O)N3CCN(C)CC3)cc2[N+](=O)[O-])cc1OC | inconclusive: 14.1 µM [inhibitor, partial curve, poor fit]
OC1CCCN(CC(O)c2ccccc2)C1 (configuration not stated) | inconclusive: 16.4 µM [activator, partial curve, poor fit]
O=C(Cn1c(COc2ccccc2)nc2ccccc21)Nc1cccc(Cl)c1 | inconclusive: 0.891 µM [inhibitor, full curve, poor fit]
Cc1ccc2[nH]c3c(c2c1)CNCC3 | inactive

Single entries from above:
CN(C)CC(C(=O)Cc1ccccc1)c1ccccc1 (configuration not stated) – Potency: inconclusive: 35.5 µM [inhibitor, single point]
CCOC(=O)C1(CC2CCCCO2)CCN(Cc2cc(F)ccc2-n2cccn2)CC1 (configuration not stated) – Potency: inconclusive: 12.6 µM [inhibitor, partial curve, poor fit]
CCOc1ccc(CN(C)c2ccc(S(=O)(=O)N3CCN(C)CC3)cc2[N+](=O)[O-])cc1OC – Potency: inconclusive: 14.1 µM [inhibitor, partial curve, poor fit]
COc1ccc(CCN2C(=O)c3[nH]nc(-c4ccccc4O)c3C2c2ccc(OC)c(OC)c2)cc1 (configuration not stated) – Potency: inconclusive: 1.58 µM [inhibitor, single point]

Additional results

SMILES | Potency
Cn1c(NCc2ccco2)nc2ccccc21 | inconclusive: 2.06 µM [activator, partial curve, poor fit]
COc1ccc(CCn2c(=N)c(C(=O)NCC3CCCO3)cc3c(=O)n4cccc(C)c4nc32)cc1OC (configuration not stated) | inconclusive: 3.16 µM [inhibitor, single point]
Cc1nc(N2CCCCC2)sc1C(=O)c1cccc([N+](=O)[O-])c1 | inactive
O=C(COc1ccc(S(=O)(=O)Nc2ccc(Cl)cc2)cc1)N1CCOCC1 | inconclusive: 7.94 µM [inhibitor, partial curve, poor fit]
CCCN1C(=O)/C(=C/c2cc(C)n(C)c2C)SC1=Nc1ccc(OC)cc1 | inconclusive: 10 µM [inhibitor, partial curve, poor fit]
CCN(CCO)Cc1csc2ccc(C(C)(C)C)cc12 | inconclusive: 29.1 µM [inhibitor, single point]
COc1ccc(C(=O)O)cc1S(=O)(=O)N1CCN(c2ccccn2)CC1 | inconclusive: 10 µM [activator, partial curve]
CCOC(=O)c1nn(-c2ccc(Br)cc2)cc1C(=O)c1cccc2ccccc12 | active: 5.8 µM
Cc1ccc(C(=O)Nc2c(-c3cccs3)nc3cc(C)ccn23)cc1 | inconclusive: 0.231 µM [inhibitor, single point]
CCOc1ccc(S(=O)(=O)N(C)c2ccc(OCC(=O)Nc3nccs3)cc2)cc1 | inconclusive: 15.8 µM [inhibitor, single point]
CCCCCCn1c(-c2ccco2)nc2oc3cc(OC)ccc3c(=O)c2c1=O | inactive
CCC(C)NCCCCOc1cc(C)cc(C(C)C)c1 (configuration not stated) | inconclusive: 9.2 µM [inhibitor, partial curve, poor fit]
CC(=O)Nc1ccc(SCC(=O)Nc2cc(C)on2)cc1 | inconclusive: 3.98 µM [activator, single point]
O=c1c2ccccc2nc(/C=C/c2ccc3c(c2)OCO3)n1CCCO | inconclusive: 35.5 µM [inhibitor, single point]
CS(=O)(=O)N1CCN(S(=O)(=O)c2ccccc2[N+](=O)[O-])CC1 | inconclusive: 20 µM [activator, single point]
CC(C)n1c(NCCO)nc2ccccc21 | inactive
COc1ccc(-n2c(-c3ccco3)nc3c(cnn3-c3ccccc3Cl)c2=O)cc1 | inactive
O=C(CCNC(=O)c1ccccc1Cl)Nc1nc(-c2ccccc2Cl)cs1 | inconclusive: 4.61 µM [activator, single point]
CC(C)(C)NCCOc1ccc2ccccc2c1 | inconclusive: 29.1 µM [inhibitor, single point]
Cn1c(CN2CCCC2)nc2cc(NC(=O)c3cccs3)ccc21 | inconclusive: 1.26 µM [activator, single point]
CCCCCn1c(CN2CCN(c3ccc(OC)cc3)CC2)nc2c1c(=O)[nH]c(=O)n2C | inactive
